The name of at least one read-out is uncertain.
System: Arthrobacter species KNK168 strain
Experiment: Amino group donors in whole-cell transamination of 1-(3,4-dimethoxyphenyl)-2-propanone
Type: cell-based
Settings: 1% amino group donor, 1% 1-(3,4-dimethoxyphenyl)-2-propanone, 0.1% Triton X-100, pH 8.5, 35° C., 20 hours
Procedure: The cultured cells were harvested by centrifugation, and the harvested cells were suspended in a reaction mixture (pH 8.5) containing 1% 1-(3,4-dimethoxyphenyl)-2-propanone, 0.1% Triton X-100, and 1% an amino group donor shown in Table 5. The mixture was reacted at 35° C. for 20 hours.

CCCCC(N)CC (racemic) [(RS)-3-Aminoheptane] was tested, and the “(R)-DMA Formed” value was 7.4%.

— US7169592B2, “Producing optically active amino compounds” (Kaneka Corporation, priority 1997, dated 2007)
